Some of these results come from one statement about several compounds together.
Assay: CO release measured with amperiometric CO selective electrode
Format: physicochemical
Settings: UW Machine Perfusion solution or Tris sucrose buffer

CC12C(=O)C(C)(C(c3ccccc3)=C1c1ccccc1)C1(Br)C(=O)N(CCC(=O)NCCN)C(=O)C21.Cl (stereo not shown) [oCOm-19, N-(2-Aminoethyl)-3-(3a-bromo-4,7-dimethyl-1,3,8-trioxo-5,6-diphenyl-3a,4,7,7a-tetrahydro-1H-4,7-methanoisoindol-2(2H)-yl)propanamide hydrochloride]
time for which CO release was sustained: over 80 minutes
